{"source": "patent US7576241B2", "about": "“Derivatives of amidines, their preparation, their use as medicaments and the pharmaceutical compositions containing them” (Ipsen Pharma S.A.S., priority 1998, dated 2009)", "key": {"[1]": {"tested_on": "lipidic peroxidation of the cerebral cortex of a rat", "assay": "Effects on lipidic peroxidation of the cerebral cortex of a rat (MDA concentration)", "type": "biochemical", "conditions": "homogenate of rat's cerebral cortex; peroxidation initiated by FeCl2/EDTA/ascorbic acid, 30 minutes at 37° C.; MDA quantified at 586 nm"}, "[2]": {"biological_target": "T1, neuronal constitutive NO synthase (Rattus norvegicus, UniProt P29476)", "T1 construct": "The reaction is initiated by adding 50 μl of homogenate; from tissue; host or cells: cerebellum of Sprague-Dawley rats (Charles River), homogenate centrifuged at 21000 g", "assay": "Effects on neuronal constitutive NO synthase of a rat's cerebellum (conversion of [3H]L-arginine into [3H]L-citrulline)", "type": "biochemical", "conditions": "Sprague-Dawley rat cerebellum homogenate; conversion by NO synthase of [3H]L-arginine into [3H]L-citrulline, 15 min"}}, "note": "Structures can show the parent of a compound that is named as a salt. Some entries share one result that the patent states for a list of compounds. For part of these data: At least one structure is not confirmed: it was looked up by name or label, or the drawing left a doubt.", "data": [{"smiles": "Cc1c(C)c(OCC(=O)N2CCN(c3ccc(N=C(N)c4cccs4)cc3)CC2)c(C)c(C)c1O", "note": "[Example 46, N′-(4-{4-[2-(4-hydroxy-2.3,5,6-tetramethylphenoxy)-acetyl]-1-piperazinyl}phenyl)-2-thiophenecarboximidamide hydrachloride]", "values": [{"measurement": "IC50", "setting": "[1]", "value": "< 30", "unit": "µM"}]}, {"smiles": "NC(=Nc1ccc(CCN2CC=C(c3ccccc3)CC2)cc1)c1cccs1", "note": "[Example 71, N′-(4-{2-[4-phenyl-3,6-dihydro-1(2H)-pyridinyl]ethyl}phenyl)-2-thiophenecarboximidamide dihydrochloride]", "values": [{"measurement": "IC50", "setting": "[2]", "value": "< 3.5", "unit": "µM"}, {"measurement": "IC50", "setting": "[1]", "value": "< 30", "unit": "µM"}]}]}
